According to the supplement of paper PMC7666118:
The other results are listed elsewhere or left out.

Protein sequences, listed by entry. Tags and fused reporters are not part of them. Lines headed by an entry give the natural chain unless they say otherwise; changes in a name come on top.
UniProt O43617, whole entry: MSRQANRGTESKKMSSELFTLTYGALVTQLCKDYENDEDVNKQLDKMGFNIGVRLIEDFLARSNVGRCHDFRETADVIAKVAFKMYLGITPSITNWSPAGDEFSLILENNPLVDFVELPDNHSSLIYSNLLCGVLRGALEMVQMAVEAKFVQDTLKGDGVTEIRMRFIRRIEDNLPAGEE
UniProt Q8WVT3: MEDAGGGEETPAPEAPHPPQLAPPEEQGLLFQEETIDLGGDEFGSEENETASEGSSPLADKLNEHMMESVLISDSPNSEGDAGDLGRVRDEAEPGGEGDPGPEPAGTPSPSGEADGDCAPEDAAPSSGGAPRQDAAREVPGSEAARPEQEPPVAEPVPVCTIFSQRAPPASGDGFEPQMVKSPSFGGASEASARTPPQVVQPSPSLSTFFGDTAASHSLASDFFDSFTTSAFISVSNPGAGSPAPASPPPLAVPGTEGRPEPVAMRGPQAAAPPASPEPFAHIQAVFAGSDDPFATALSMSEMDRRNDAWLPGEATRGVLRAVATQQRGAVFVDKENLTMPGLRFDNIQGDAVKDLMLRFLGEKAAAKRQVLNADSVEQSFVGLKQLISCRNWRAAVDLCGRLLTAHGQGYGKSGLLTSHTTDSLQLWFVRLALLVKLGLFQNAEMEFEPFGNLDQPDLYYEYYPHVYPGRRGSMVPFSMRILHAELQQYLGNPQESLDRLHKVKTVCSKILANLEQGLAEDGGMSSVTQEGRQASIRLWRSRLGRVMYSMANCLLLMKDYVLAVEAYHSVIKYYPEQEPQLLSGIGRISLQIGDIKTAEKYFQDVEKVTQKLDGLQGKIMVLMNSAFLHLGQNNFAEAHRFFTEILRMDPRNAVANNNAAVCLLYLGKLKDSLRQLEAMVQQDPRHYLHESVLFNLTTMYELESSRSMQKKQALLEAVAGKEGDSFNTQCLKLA
UniProt Q8N4H5: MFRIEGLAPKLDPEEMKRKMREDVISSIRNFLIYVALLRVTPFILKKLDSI
UniProt Q9BV44: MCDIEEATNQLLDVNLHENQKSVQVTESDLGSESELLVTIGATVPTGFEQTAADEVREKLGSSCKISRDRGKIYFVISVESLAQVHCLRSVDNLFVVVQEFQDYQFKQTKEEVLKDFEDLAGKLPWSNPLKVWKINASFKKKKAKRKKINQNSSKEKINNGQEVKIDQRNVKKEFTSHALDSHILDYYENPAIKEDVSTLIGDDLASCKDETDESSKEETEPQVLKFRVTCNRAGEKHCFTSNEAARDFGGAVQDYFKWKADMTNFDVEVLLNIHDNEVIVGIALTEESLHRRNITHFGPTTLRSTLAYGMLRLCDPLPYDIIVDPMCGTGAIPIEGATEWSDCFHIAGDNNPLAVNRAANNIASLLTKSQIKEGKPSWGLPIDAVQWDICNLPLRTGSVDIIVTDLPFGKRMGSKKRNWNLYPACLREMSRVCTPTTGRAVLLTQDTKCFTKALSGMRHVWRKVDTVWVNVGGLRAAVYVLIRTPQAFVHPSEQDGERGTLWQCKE
UniProt Q9Y5U2: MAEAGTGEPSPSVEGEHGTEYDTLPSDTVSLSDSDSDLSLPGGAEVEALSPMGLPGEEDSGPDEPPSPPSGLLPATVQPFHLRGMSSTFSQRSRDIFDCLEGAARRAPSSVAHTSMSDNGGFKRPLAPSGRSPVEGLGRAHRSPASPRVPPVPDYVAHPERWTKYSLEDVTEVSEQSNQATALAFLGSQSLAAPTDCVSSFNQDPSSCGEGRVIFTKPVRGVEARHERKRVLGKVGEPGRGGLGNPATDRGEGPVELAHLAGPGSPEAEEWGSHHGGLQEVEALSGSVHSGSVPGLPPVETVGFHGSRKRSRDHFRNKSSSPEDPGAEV
UniProt Q86W42: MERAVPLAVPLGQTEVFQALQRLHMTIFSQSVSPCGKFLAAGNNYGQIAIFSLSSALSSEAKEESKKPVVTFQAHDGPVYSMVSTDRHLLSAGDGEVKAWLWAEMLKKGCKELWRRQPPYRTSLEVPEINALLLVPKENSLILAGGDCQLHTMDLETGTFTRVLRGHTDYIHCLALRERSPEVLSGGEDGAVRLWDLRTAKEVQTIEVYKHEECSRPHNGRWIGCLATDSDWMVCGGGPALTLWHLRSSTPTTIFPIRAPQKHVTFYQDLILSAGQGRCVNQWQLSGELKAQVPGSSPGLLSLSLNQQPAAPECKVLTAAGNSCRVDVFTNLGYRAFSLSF
UniProt Q9NVH6: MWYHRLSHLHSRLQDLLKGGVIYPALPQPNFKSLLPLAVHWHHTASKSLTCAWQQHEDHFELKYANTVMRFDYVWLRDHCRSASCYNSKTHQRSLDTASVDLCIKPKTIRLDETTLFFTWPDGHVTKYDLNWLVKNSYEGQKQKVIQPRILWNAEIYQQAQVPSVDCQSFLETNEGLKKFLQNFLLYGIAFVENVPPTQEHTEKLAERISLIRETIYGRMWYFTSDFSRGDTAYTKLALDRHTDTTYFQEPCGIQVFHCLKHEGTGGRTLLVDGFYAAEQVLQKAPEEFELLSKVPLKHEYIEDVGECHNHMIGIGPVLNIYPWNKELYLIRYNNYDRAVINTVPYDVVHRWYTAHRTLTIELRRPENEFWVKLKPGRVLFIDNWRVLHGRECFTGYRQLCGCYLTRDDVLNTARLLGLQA
UniProt O14817: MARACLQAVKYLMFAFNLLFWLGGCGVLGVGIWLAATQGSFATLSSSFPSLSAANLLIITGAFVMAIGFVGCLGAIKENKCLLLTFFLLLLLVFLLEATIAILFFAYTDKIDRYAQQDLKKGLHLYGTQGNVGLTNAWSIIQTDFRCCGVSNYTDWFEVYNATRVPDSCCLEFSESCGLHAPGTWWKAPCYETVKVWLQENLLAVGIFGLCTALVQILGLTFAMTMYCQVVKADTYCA
UniProt Q96FX7: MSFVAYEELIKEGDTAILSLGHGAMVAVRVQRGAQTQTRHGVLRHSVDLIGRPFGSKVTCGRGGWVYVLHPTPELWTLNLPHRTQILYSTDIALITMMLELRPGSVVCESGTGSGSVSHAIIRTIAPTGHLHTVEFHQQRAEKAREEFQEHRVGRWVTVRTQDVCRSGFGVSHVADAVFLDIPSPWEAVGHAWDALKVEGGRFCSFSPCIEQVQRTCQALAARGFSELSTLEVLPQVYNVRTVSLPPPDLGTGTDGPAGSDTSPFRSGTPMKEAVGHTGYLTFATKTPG
UniProt Q8IU68: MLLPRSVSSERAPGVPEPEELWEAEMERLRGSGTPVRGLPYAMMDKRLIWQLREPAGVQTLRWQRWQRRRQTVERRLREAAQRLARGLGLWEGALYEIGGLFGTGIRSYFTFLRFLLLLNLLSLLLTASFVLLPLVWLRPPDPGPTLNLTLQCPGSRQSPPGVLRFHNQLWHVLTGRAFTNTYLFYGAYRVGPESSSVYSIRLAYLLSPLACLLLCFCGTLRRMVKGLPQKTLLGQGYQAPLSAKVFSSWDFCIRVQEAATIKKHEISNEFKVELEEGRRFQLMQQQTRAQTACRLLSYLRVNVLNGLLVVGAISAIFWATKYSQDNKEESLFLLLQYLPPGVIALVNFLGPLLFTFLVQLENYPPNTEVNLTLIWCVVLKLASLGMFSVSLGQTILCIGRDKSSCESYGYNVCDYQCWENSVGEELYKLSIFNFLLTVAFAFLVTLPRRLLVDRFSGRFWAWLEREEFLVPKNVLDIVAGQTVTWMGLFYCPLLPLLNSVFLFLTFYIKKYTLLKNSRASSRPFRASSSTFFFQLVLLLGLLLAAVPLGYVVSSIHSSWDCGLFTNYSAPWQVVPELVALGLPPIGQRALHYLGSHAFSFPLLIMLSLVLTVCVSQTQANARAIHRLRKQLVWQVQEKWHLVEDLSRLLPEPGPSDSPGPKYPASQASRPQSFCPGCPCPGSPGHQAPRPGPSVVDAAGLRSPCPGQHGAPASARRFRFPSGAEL
UniProt Q9ULW0, whole entry: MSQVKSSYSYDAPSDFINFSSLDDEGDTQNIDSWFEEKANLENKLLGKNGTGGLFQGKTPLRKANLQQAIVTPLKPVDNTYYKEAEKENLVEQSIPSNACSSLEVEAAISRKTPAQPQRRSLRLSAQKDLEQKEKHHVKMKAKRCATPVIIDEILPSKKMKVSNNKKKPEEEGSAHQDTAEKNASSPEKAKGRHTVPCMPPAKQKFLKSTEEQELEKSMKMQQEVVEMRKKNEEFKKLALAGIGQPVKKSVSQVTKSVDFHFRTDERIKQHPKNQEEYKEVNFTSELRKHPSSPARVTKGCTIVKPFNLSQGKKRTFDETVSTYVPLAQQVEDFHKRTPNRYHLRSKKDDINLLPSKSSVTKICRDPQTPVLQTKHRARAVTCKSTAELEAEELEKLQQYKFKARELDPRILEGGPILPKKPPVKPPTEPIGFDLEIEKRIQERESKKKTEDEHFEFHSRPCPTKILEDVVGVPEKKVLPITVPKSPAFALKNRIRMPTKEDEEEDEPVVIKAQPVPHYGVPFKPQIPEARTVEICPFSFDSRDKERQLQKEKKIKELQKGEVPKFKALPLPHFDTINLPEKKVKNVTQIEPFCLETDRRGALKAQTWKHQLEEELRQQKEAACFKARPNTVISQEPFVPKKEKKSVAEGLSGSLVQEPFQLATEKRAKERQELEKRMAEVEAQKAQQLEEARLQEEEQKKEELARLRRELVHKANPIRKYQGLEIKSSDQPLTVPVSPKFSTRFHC
UniProt P29144: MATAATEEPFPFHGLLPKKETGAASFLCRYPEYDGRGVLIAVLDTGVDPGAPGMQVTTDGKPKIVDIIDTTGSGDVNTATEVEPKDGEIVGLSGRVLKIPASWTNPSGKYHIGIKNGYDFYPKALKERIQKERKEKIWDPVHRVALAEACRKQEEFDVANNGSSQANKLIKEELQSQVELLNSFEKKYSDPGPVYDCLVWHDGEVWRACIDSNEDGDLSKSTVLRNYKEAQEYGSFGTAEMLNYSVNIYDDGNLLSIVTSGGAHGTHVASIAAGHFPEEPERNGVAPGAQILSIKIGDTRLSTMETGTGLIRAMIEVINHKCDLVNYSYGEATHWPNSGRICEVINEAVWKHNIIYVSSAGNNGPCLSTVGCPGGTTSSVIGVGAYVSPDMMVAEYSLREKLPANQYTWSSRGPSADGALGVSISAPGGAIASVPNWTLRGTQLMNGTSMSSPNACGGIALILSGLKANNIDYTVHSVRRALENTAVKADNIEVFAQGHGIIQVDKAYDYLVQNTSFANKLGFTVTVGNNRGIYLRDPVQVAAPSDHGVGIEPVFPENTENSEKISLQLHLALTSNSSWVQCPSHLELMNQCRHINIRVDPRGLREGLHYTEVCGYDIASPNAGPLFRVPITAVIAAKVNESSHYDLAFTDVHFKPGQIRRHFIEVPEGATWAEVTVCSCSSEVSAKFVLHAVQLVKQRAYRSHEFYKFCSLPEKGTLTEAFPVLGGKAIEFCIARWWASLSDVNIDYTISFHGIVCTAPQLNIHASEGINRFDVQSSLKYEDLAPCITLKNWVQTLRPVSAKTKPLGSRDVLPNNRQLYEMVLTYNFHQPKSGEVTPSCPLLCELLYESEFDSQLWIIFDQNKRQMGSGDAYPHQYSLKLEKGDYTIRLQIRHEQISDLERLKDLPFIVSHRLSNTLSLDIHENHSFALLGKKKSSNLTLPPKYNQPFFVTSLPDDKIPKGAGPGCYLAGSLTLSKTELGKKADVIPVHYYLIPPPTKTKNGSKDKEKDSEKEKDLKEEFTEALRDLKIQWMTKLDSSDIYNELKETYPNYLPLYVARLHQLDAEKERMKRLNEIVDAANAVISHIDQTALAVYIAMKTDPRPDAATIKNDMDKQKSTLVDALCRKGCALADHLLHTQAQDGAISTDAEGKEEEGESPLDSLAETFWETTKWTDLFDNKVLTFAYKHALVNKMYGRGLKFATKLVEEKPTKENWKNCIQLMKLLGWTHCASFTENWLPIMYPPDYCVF
UniProt Q969E8: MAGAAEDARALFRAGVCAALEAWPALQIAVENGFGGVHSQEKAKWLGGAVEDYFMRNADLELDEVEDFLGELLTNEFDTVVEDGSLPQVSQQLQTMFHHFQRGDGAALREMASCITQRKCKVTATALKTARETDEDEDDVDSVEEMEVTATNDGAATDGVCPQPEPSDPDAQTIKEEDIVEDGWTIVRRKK
UniProt O14656: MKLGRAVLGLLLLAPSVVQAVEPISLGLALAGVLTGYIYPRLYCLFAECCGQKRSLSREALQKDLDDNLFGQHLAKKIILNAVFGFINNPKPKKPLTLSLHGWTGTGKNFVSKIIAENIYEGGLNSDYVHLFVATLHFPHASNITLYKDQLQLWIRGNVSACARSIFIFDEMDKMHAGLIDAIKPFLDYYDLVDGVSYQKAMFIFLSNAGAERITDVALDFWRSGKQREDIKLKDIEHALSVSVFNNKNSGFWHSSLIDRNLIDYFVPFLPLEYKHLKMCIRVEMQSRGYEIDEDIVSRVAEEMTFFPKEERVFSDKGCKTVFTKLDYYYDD
UniProt O95379: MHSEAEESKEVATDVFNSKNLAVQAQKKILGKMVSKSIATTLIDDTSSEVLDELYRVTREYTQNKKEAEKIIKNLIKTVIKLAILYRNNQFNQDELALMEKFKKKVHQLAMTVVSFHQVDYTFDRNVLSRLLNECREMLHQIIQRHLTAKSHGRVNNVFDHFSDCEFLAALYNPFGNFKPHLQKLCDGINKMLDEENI

Compound: COc1ccc(Cn2ccc3cc(C)c(C(=O)NO)cc32)cc1
Assay: dose-dependent thermal stabilisation call (2D-TPP, DLPTP, 10% FDR) (binary (1 = stabilised)); higher = stabilised by the compound
Conditions: system: HL-60 intact cells; concentration range 0.04-10 µM
Protocol: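 2D thermal proteome profiling in intact HL-60 cells treated with BRD-3811 (0, 0.04, 0.29, 2, 10 uM) for 90 min at 37 C, then heated 3 min at one of 12 temperatures (42-63.9 C). Soluble protein was quantified by TMT10 MS. The value is the DLPTP call of the paper: dose-dependent thermal stabilisation over all temperatures at 10% FDR (F-test of a dose-response against a flat model); one experiment, one call per tested protein.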

| Target | dose-dependent thermal stabilisation call |
| --- | --- |
| TRAPPC3 (UniProt O43617) | inactive: 0 |
| TRAPPC10 (UniProt P48553) | inactive: 0 |
| TTC15 (UniProt Q8WVT3) | inactive: 0 |
| TRIP12 (UniProt Q14669) | inactive: 0 |
| TMEM161A (UniProt Q9NX61) | inactive: 0 |
| TSC1 (UniProt Q92574) | inactive: 0 |
| TOP3A (UniProt Q13472) | inactive: 0 |
| TOMM5 (UniProt Q8N4H5) | inactive: 0 |
| TMUB2 (UniProt Q71RG4) | inactive: 0 |
| TMSL3 | inactive: 0 |
| TPCN2 (UniProt Q8NHX9) | inactive: 0 |
| THUMPD3 (UniProt Q9BV44) | inactive: 0 |
| TSSC4 (UniProt Q9Y5U2) | inactive: 0 |
| THOC6 (UniProt Q86W42) | inactive: 0 |
| TMLHE (UniProt Q9NVH6) | inactive: 0 |
| TRIM32 (UniProt Q13049) | inactive: 0 |
| TMEM62 (UniProt Q0P6H9) | inactive: 0 |
| TSPAN4 (UniProt O14817) | inactive: 0 |

In a second layout: results already given.
Target,dose-dependent thermal stabilisation call
TSC1 (UniProt Q92574),inactive: 0
TOP3A (UniProt Q13472),inactive: 0

Further entries

| Target | dose-dependent thermal stabilisation call |
| --- | --- |
| TNFAIP8L2 (UniProt Q6P589) | inactive: 0 |
| TRMT61A (UniProt Q96FX7) | inactive: 0 |
| TMC8 (UniProt Q8IU68) | inactive: 0 |
| TPX2 (UniProt Q9ULW0) | active: 1 |
| TRMT2B (UniProt Q96GJ1) | inactive: 0 |
| TPP2 (UniProt P29144) | inactive: 0 |
| TSR2 (UniProt Q969E8) | inactive: 0 |
| TMEM143 (UniProt Q96AN5) | inactive: 0 |
| TOMM22 (UniProt Q9NS69) | inactive: 0 |
| THOC1 (UniProt Q96FV9) | inactive: 0 |
| TRMT61B (UniProt Q9BVS5) | inactive: 0 |
| TSEN54 (UniProt Q7Z6J9) | inactive: 0 |
| TOR3A (UniProt Q9H497) | inactive: 0 |
| TMEM17 (UniProt Q86X19) | inactive: 0 |
| TOR1A (UniProt O14656) | inactive: 0 |
| TNFAIP8 (UniProt O95379) | inactive: 0 |
| TPM3 (UniProt P06753) | inactive: 0 |
| THOC7 (UniProt Q6I9Y2) | inactive: 0 |
